Earlier results in patent US20220378809A1, “SYNTHETIC COMPOSITION FOR BALANCING THE BILE ACID PROFILE IN THE INTESTINE” (GLYCOM A/S, priority 2019, published 2022).
For at least one compound, name, drawing or mass did not settle the structure.

Columns and labels:
[1] = test system: dextran sodium sulphate-induced colitis; conditions: mice; daily oral administration; cited from earlier work
[2] = test system: C. difficile ileal pouchitis; conditions: daily administration; single case report; cited from earlier work

## C[C@H](CCC(=O)O)[C@H]1CC[C@H]2[C@@H]3[C@@H](O)C[C@@H]4C[C@H](O)CC[C@]4(C)[C@H]3CC[C@]12C [UDCA, Ursodeoxycholic acid]
[1]
  severity of dextran sodium sulphate-induced colitis: equally lowered the severity
[2]
  elimination and recurrence of C. difficile ileal pouchitis: successfully eliminate and prevent recurrence
